Source: PubChem BioAssay AID540256 (National Center for Advancing Translational Sciences (NCATS), 2011)
Screen size: about 300,000 compounds; about 3,700 (1.2%) were called active. Inconclusive means that the source gave no clear call. Such entries were picked first, then a sample of the others. Calls come from the whole dose curve; tested in HEK293 cells. Where the call is inconclusive, the potency comes from a doubtful curve fit.

Assay: qHTS for Inhibitors of binding or entry into cells for Lassa Virus; note: nearly all actives have a fitted effect of over 50% in size
Settings: Lassa virus pseudotype entry inhibition, cell reporter; activity change, negative = inhibition: at 37.9 µM (top of the series) unless noted
% is set by controls: 0 for no effect and ±100 for the full control effect; potency is the fitted concentration of half-maximal effect.

SMILES	Potency	activity change, negative = inhibition
Brc1cnc(N2CCOCC2)nc1N1CCCCC1	inconclusive: 32.6 µM [inhibitor, single point]	
CC1Oc2ccccc2N(CC(=O)c2ccccc2)C1=O (stereo unspecified)	inconclusive: 6.51 µM [inhibitor, single point]	
Cn1c(=O)n(C)c2cc([N+](=O)[O-])c(N3CCN(S(C)(=O)=O)CC3)cc21	inconclusive: 23.1 µM [inhibitor, partial curve, poor fit]	
CCCCC1(C)OC(=O)C(=Cc2c[nH]c3ccccc23)C(=O)O1 (stereo unspecified)		inactive: -9.64%
Cc1ccc(CNC(=O)Cn2nnc(C(=O)Nc3cc(C)ccc3C)c2N)cc1	inconclusive: 15.8 µM [inhibitor, single point]	
Cc1cc(=O)oc2cc(OC(C(=O)O)c3ccccc3)ccc12 (stereo unspecified)	inconclusive: 7.94 µM [activator, partial curve]	
c1ccc(Sc2ncnc3c2oc2ccccc23)cc1	inconclusive: 1.83 µM [activator, partial curve]	
COc1ccc(C(=O)N2CCN(C(=O)c3ccc(-c4ccccc4)cc3)CC2)cc1OC	inconclusive: 7.08 µM [inhibitor, full curve, poor fit]	
Cn1c(-c2cccc(F)c2)nc2c1c(=O)[nH]c(=O)n2Cc1ccccc1	active: 8.91 µM	
CCN1/C(=C\C=C\C2=[N+](CC)c3ccccc3C2(C)C)C(C)(C)c2ccccc21	active: 0.794 µM	
COc1ccc(-c2cc(-c3nc(-c4cc(OC)c(OC)c(OC)c4)no3)[nH]n2)c(OC)c1	inconclusive: 6.31 µM [inhibitor, full curve, poor fit]	
CCN(C(=O)COC(=O)Cn1cnc2c1c(=O)n(C)c(=O)n2C)C1CCS(=O)(=O)C1 (stereo unspecified)	inconclusive: 10 µM [activator, partial curve, poor fit]	
COc1ccc(CN=Cc2[nH]c3ccc(Br)c(Cl)c3c2O)cc1	inconclusive: 16.4 µM [inhibitor, single point]	
O=c1[nH]c(C2CCN(S(=O)(=O)c3ccccc3C(F)(F)F)CC2)nc2c1nnn2Cc1cccc(F)c1	inconclusive: 17.8 µM [inhibitor, partial curve, poor fit]	
N#CC(c1cccc(C(F)(F)F)c1)(c1ncc(C(F)(F)F)cc1Cl)N1CCOCC1 (stereo unspecified)	inconclusive: 20.6 µM [inhibitor, single point]	
CSCCC(NC(=O)c1ccc(C(C)(C)C)cc1)C(=O)O (stereo unspecified)	inconclusive: 11.2 µM [inhibitor, partial curve, poor fit]	
Cc1ccc(-c2nn(CC(=O)NCc3cc(-c4nn(C)c(=O)c5ccccc45)ccc3C)c(=O)c3ccccc23)cc1	inconclusive: 6.31 µM [inhibitor, partial curve, poor fit]	
Cc1ccc(C(=O)NCc2ccc(Cl)c(Cl)c2)o1	inconclusive: 11.2 µM [activator, single point]	
Clc1ccccc1-c1nn2c(-c3ccccn3)nnc2s1	inconclusive: 8.2 µM [activator, partial curve]	
CCOc1ccc(NC(=O)c2nc(S(=O)(=O)Cc3ccccc3F)ncc2Cl)cc1	inconclusive: 12.6 µM [inhibitor, partial curve, poor fit]	
COc1ccc(S(=O)(=O)n2nc(-c3ccco3)nc2NCc2ccc(C(C)C)cc2)cc1		inactive: 17.5% [at 46.1 µM]
N#C/C(=C\c1ccc(N2CCOCC2)o1)c1nc2ccccc2[nH]1	inconclusive: 6.31 µM [inhibitor, full curve]	

SMILES	Potency	activity change, negative = inhibition
CC(=O)c1ccc(OCCCC(=O)NC2CCCc3ccccc32)cc1 (stereo unspecified)		inactive: 26.4%
CCOC(=O)c1cnc(C(F)(F)F)nc1Oc1ccccc1	inconclusive: 0.562 µM [inhibitor, single point]	
Cc1cc(NC(=O)CN2CCN(c3ccc(O)cc3)CC2)no1		inactive: -1.56%
COC(=O)Nc1nnc(-c2ccc(OC)cc2)s1	inconclusive: 8.91 µM [inhibitor, partial curve, poor fit]	
CCN(CC)C(=O)c1ccc(C(=O)c2c(C)cc(C)cc2C)cc1	inconclusive: 20 µM [inhibitor, single point]	
COc1cccc(OC)c1CN1CCCC(C(=O)c2ccccc2SC)C1 (stereo unspecified)	inconclusive: 11.2 µM [inhibitor, partial curve, poor fit]	
CC1(C)CC(NC(=O)c2ccccc2F)CC(C)(C)N1	inconclusive: 0.316 µM [inhibitor, full curve]	
C=CCn1c(=O)c(C(=O)Nc2ccccc2C(=O)OCC)c(O)c2ccccc21		inactive: -0.0786%
CCc1ccc(-c2nc3cc(NC(=O)c4ccc(C)c(C)c4)ccc3o2)cc1		inactive: 0.16% [at 46.1 µM]
COCCn1c(SC(C)C(=O)Nc2ccc3c(c2)OCCO3)nc2ccccc2c1=O (stereo unspecified)		inactive: -11.2%
Cc1nn2c3c(cnc2c1-c1ccc(Cl)cc1)C(=O)CC(c1ccco1)C3 (stereo unspecified)	inconclusive: 2.91 µM [activator, single point]	
CC(=O)NC(Cc1cccc(C)c1)C(=O)NC1CCN(C(=O)c2ccc([N+](=O)[O-])cc2)CC1 (stereo unspecified)		inactive: -6.18%
Cc1ccc(C)c(CN2C(=O)c3ccccc3S(=O)c3ccc(C(=O)N4CCCCC4)cc32)c1 (stereo unspecified)	inconclusive: 22.4 µM [inhibitor, single point]	
COc1ccc(N2CCN(C(=O)COc3ccc(Cl)cc3Cl)CC2)cc1	inconclusive: 0.891 µM [inhibitor, full curve, poor fit]	
CCS(=O)(=O)NCCc1csc2nc(-c3ccc(OC)cc3)nn12	inconclusive: 2 µM [activator, full curve, poor fit]	
Cc1noc(C)c1C(=O)Nc1nc(C23CC4CC(CC(C4)C2)C3)cs1	inconclusive: 29.1 µM [inhibitor, single point]	
Cc1ccc(C(=O)COC(=O)c2cc(=O)[nH]c3ccccc23)cc1C	inconclusive: 10 µM [activator, partial curve]	
O=C1CC(c2ccc(Cl)c([N+](=O)[O-])c2)c2ccc3ccccc3c2N1 (stereo unspecified)	inconclusive: 18.4 µM [inhibitor, single point]	
Cc1cccc(NC(=S)N2CCC(c3nc4ccccc4o3)CC2)c1	inconclusive: 28.2 µM [inhibitor, single point]	
c1ccc(-c2ccc(-c3[nH]ncc3CN3CCC(N4CCSCC4)CC3)cc2)cc1		inactive: 7.16%
Cc1ccc(C(=O)NCc2ccncc2)cc1S(=O)(=O)N1CCOCC1		inactive: 11% [at 46.1 µM]
CC(C)(C)C(=O)Nc1cccc(S(=O)(=O)NC2=NCCC2)c1	inconclusive: 2.82 µM [activator, partial curve, poor fit]	

Gathered by group: the compounds so far with a cyano group (2)
SMILES	Potency	activity change, negative = inhibition
N#CC(c1cccc(C(F)(F)F)c1)(c1ncc(C(F)(F)F)cc1Cl)N1CCOCC1 (stereo unspecified)	inconclusive: 20.6 µM [inhibitor, single point]	
N#C/C(=C\c1ccc(N2CCOCC2)o1)c1nc2ccccc2[nH]1	inconclusive: 6.31 µM [inhibitor, full curve]	

In the list so far, 2 have a tert-butyl group:
SMILES	Potency	activity change, negative = inhibition
CSCCC(NC(=O)c1ccc(C(C)(C)C)cc1)C(=O)O (stereo unspecified)	inconclusive: 11.2 µM [inhibitor, partial curve, poor fit]	
CC(C)(C)C(=O)Nc1cccc(S(=O)(=O)NC2=NCCC2)c1	inconclusive: 2.82 µM [activator, partial curve, poor fit]	

(further entries)

SMILES	Potency	activity change, negative = inhibition
COc1ccc(-c2nc3ccccc3c(=O)[nH]2)cc1	inconclusive: 7.08 µM [inhibitor, partial curve, poor fit]	
COc1cccc(C(=O)Nc2nnc(S(=O)(=O)N3CCCc4ccccc43)s2)c1		inactive: -3.32% [at 46.1 µM]
Cc1ccc(C)c(Nc2nn3c(=O)c4ccc(C(=O)NCc5ccccc5)cc4nc3s2)c1		inactive: 0.49% [at 46.1 µM]
CC(NCC(O)COCCC12CC3CC(CC(C3)C1)C2)c1ccccc1 (stereo unspecified)	inconclusive: 29.1 µM [inhibitor, single point]	
Cc1ccc(C)n1-c1ccc(C(=O)N2CCC(C(N)=O)CC2)cc1	inconclusive: 35.5 µM [inhibitor, partial curve, poor fit]	
Cc1cccc(-n2ncc3c(NNC(=O)c4ccccc4Cl)ncnc32)c1		inactive: 0.861% [at 46.1 µM]
O=c1[nH]c(C2CCCN(S(=O)(=O)c3ccccc3)C2)nc2c1nnn2Cc1ccccc1Br (stereo unspecified)	inconclusive: 5.62 µM [inhibitor, partial curve, poor fit]	
O=C(NNS(=O)(=O)c1ccc(F)cc1F)C1Cc2c(ccc3ccccc23)O1 (stereo unspecified)	inconclusive: 5.8 µM [inhibitor, full curve, poor fit]	
CCOc1ccc(NC(=O)c2sc(N3CCOCC3)nc2-c2ccccc2)cc1	inconclusive: 17.8 µM [inhibitor, partial curve, poor fit]	
COC(=O)c1nnn(-c2nc(N(C)C)nc(N(C)C)n2)c1C	inconclusive: 14.1 µM [activator, single point]	
O=C(CN1C(=O)COc2ccc(S(=O)(=O)N3CCCCCC3)cc21)N1CCN(c2ccc(Cl)cc2)CC1		inactive: 13.8% [at 46.1 µM]
Cc1cccc(NC(=O)c2c(NC(=O)c3ccccc3)sc3c2CCC3)c1	inconclusive: 4.47 µM [activator, full curve, poor fit]	
CN1CCOC1c1ccc(C2OCCN2C)cc1 (stereo unspecified)		inactive: 0.075%
c1cncc(-c2noc(-c3cccc4ccccc34)n2)c1		inactive: 1.36%
Cc1ccccc1-c1nc(CS(=O)(=O)CC(=O)N2CCCCC2)c(C)o1	inconclusive: 14.1 µM [inhibitor, single point]	
Cc1cccc(N2CCN(c3nc4ccccc4c4nnc(C)n34)CC2)c1C	inconclusive: 2 µM [inhibitor, partial curve, poor fit]	
COC(=O)c1ccc(NC(=O)CC2C(=O)N(c3ccccc3)C(=O)N2Cc2cccs2)cc1 (stereo unspecified)		inactive: -8.82% [at 46.1 µM]
CN(C)c1ccc(C=C2C=CC=C2)cc1		inactive: 14.2%
Cc1ccc(NC(=O)CSc2nc3ccccc3c(=O)n2CCCC(=O)NCCCN2CCOCC2)cc1	inconclusive: 0.891 µM [inhibitor, full curve, poor fit]	
Cc1ccc(-c2nc(N)s[n+]2-c2ccccc2)cc1	inconclusive: 2.59 µM [activator, partial curve, poor fit]	
CCOC(=O)c1cnc(-n2nc(C)cc2C)nc1Nc1ccc(OC)cc1	inconclusive: 14.6 µM [inhibitor, partial curve]	
O=C1c2ccccc2NC(c2cn[nH]c2-c2ccccc2)N1O (stereo unspecified)		inactive: 1.54%
